PubChem BioAssay AID743454 | Peter MacCallum Cancer Centre | 2014
The whole screen tested about 18,000 reagents; below is an unselected part. 450 of all reagents (2.5%) were called active. 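Single biological run; no consistent viability z cut-off exists, so the class columns, not z-scores, define the calls.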 No sequences are given here.

- Purpose: 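Search for knock-downs that restore vorinostat killing in resistant colon cancer cells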 (primary screen)
- System: human HCT116-VR colon cancer cells, selected for vorinostat resistance
- Reagents: siRNA pool against human genes, 40 nM siRNA pool
- Time to read-out: vorinostat for 24 h, read-out about 72 h after transfection
- Conditions: vorinostat at 2.5 µM final
- Read-out: 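Cell viability by CellTiter-Fluor and caspase 3/7 activity by luminescence, each scaled to mock wells per plate, duplicates averaged, then robust z-scored over all plates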
- Scale: viability robust z-score: higher = more viable cells than screen typical; caspase robust z-score: higher = more caspase 3/7 activity than screen typical
- Hit rule: 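Hits are knock-downs in viability class RV1/RV2 or caspase class CA1/CA2, excluding ones that killed cells in the no-drug cell-count arm; hits then retested with single siRNAs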

Which result is listed for GAL3ST4?
viability hit class: no change; caspase hit class: no change; viability robust z-score: -0.15; caspase robust z-score: 1.68; Outcome: inactive

For GJA8, how do the results read?
viability hit class: no change; caspase hit class: no change; viability robust z-score: -2.86; caspase robust z-score: 1.08; Outcome: inactive

For MED30, what was measured?
viability hit class: no change; caspase hit class: no change; viability robust z-score: 0.52; caspase robust z-score: -0.36; Outcome: inactive

What did the screen give for HBG2?
viability hit class: no change; caspase hit class: no change; viability robust z-score: 1.48; caspase robust z-score: 0.56; Outcome: inactive

For PAWR, what was measured?
viability hit class: no change; caspase hit class: no change; viability robust z-score: 0.6; caspase robust z-score: -0.85; Outcome: inactive

With CRNN, what was measured?
viability hit class: no change; caspase hit class: no change; viability robust z-score: -2.97; caspase robust z-score: 3.04; Outcome: inactive

With ZSCAN9, what does the deposit list?
viability hit class: no change; caspase hit class: no change; viability robust z-score: 0.06; caspase robust z-score: -0.42; Outcome: inactive

What did the screen give for HNRNPA3?
viability hit class: no change; caspase hit class: no change; viability robust z-score: -2.46; caspase robust z-score: -1.09; Outcome: inactive

Which result is listed for MAST2?
viability hit class: no change; caspase hit class: no change; viability robust z-score: -0.44; caspase robust z-score: -0.11; Outcome: inactive

What is on record for VIPR2?
viability hit class: no change; caspase hit class: no change; viability robust z-score: 0.04; caspase robust z-score: -1.1; Outcome: inactive

How did the screen score SERPINB1?
viability hit class: no change; caspase hit class: no change; viability robust z-score: -0.54; caspase robust z-score: -0.96; Outcome: inactive

For DTWD2, how do the results read?
viability hit class: no change; caspase hit class: no change; viability robust z-score: -0.04; caspase robust z-score: 1.4; Outcome: inactive

Targets listed so far whose gene name begins with G or g:
GAL3ST4 — viability hit class = no change; caspase hit class = no change; viability robust z-score = -0.15; caspase robust z-score = 1.68; Outcome = inactive
GJA8 — viability hit class = no change; caspase hit class = no change; viability robust z-score = -2.86; caspase robust z-score = 1.08; Outcome = inactive
